Reference: publication doi:10.1101/2021.11.03.466924
Where two headings read alike, the source gives them in different places. Results are given in words; binding and its absence hold for the method and conditions named. Binding seen in cells or lysates may run through a third protein. Here binding means that the protein was enriched with, or labelled near, the bait; the list need not be complete. For part of these data: No binding means not detected with the bait.

Assays:
Test in all cases: affinity purification with mass spectrometry
AKiT1-3xHA (P. berghei) = target: AKiT1-3xHA (P. berghei)
[1] = target: tagged AKiT9 (P. berghei)
NUF2-3xHA (P. berghei) [2] = target: NUF2-3xHA (P. berghei)
SKA2-3xHA (P. berghei) = target: SKA2-3xHA (P. berghei)
NUF2-3xHA (P. berghei) [3] = target: NUF2-3xHA (P. berghei); remark: listed apart in the source

Substance: AKiT9 (PBANKA_1307000) (from UniProt A0A509AMZ4)
- binding (AKiT1-3xHA (P. berghei)): binds

Substance: AKiT10 (PBANKA_0406000) (from UniProt A0A509AKJ4)
- binding (AKiT1-3xHA (P. berghei)): binds
- binding [1]: binds

Substance: AKiT11 (PBANKA_0803900) (from UniProt A0A509AI99)
- binding (AKiT1-3xHA (P. berghei)): binds
- binding [1]: binds

Substance: Apicomplexan Kinetochore protein 1 (AKiT1) (from UniProt A0A509AFF7)
- binding (NUF2-3xHA (P. berghei) [2]): binds

Substance: PBANKA_1362400 (SKA3) (from UniProt A0A509ARM1)
- binding (SKA2-3xHA (P. berghei)): binds

Substance: SEA1 (from UniProt A0A509AGU7)
- binding (NUF2-3xHA (P. berghei) [3]): no binding
- binding (AKiT1-3xHA (P. berghei)): binds
- binding (NUF2-3xHA (P. berghei) [2]): no binding
- binding (SKA2-3xHA (P. berghei)): no binding

Substance: STU2 (PBANKA_1337500) (from UniProt A0A509AS96)
- binding (AKiT1-3xHA (P. berghei)): binds
